According to patent publication US20100143371A1 (published 2010):
These are yes or no findings as the source states them, for the method shown. For some of these results: Binding seen in cells or lysates may run through a third protein. Some results given as binding are weak or reduced against the parent protein; the word gives no strength.

The chains behind the UniProt entries cited, without tags or fusion partners. Residues count along the entry.
UniProt P51813, residues 417-675: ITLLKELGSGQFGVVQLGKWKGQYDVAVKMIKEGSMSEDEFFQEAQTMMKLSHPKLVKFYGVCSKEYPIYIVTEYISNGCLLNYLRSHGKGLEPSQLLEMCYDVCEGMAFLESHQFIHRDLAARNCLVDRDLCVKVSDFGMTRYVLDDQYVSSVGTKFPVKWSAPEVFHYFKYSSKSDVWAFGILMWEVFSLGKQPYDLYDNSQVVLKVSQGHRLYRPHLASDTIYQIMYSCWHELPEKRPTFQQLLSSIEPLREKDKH

T1: endogenous Etk of NSR cells (mouse, UniProt P97504 1-651)
T1 sequence (looked up): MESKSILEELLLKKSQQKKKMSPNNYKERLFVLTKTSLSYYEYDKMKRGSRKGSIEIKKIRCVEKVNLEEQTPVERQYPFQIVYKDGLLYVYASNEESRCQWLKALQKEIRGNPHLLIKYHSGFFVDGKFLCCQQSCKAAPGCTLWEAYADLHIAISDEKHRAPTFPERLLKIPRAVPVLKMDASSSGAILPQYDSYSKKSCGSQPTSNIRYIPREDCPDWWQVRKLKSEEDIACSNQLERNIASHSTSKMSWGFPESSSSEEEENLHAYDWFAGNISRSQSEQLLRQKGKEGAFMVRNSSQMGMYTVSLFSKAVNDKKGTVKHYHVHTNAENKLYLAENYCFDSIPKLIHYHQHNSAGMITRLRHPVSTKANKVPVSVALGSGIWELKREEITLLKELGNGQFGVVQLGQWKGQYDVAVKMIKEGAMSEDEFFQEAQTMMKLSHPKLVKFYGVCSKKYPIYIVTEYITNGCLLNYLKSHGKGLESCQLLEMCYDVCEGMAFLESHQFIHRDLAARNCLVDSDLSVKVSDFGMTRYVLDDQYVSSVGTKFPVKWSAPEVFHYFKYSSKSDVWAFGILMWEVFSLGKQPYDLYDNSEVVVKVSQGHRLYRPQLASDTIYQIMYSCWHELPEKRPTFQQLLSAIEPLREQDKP


Target: GST-Etk kinase domain (human, UniProt P51813 417-675)
Assay: ELISA, purified domain antibody on immobilised GST-Etk

binding	Binder
binds	L9 soluble single domain antibody (antibody, V domains shown, Single human kappa light chain variable domain, from pDOM5 in E. coli BL21, protein L purified; not shown: c-Myc tag (detected with anti-Myc-HRP)) VL: DIQMTQSPSSLSASVGDRVTITCRASQAIKNKLGWYQQKPGKAPKLLIYKASYLQSGVPSRFSGSGSGTDFTLTISSLQPEDFATYYCQQMKSRPNTFGQGTKVEIKR
binds	L15 soluble single domain antibody (antibody, V domains shown, Single human kappa light chain variable domain, from pDOM5 in E. coli BL21, protein L purified; not shown: c-Myc tag (detected with anti-Myc-HRP)) VL: DIQMTQSPSSLSASVGDRVTITCRASQNIKTKLNWYQQKPGKAPKLLIYRVSTLQSGVPSRFSGSGSGTDFTLTISSLQPEDFATYYCQQTKKRPFTFGQGTKVEIER
binds	L12 soluble single domain antibody (antibody, V domains shown, Single human kappa light chain variable domain, from pDOM5 in E. coli BL21, protein L purified; not shown: c-Myc tag (detected with anti-Myc-HRP)) VL: DIQMTQSPSSLSASVGDRVTITCRASQWIFDRLHWYQQKPGKAPTLLIYNSSTLQSGVPSRFSGSGSGTDFTLTISSLQPEDFATYYCQQTKSRPSTFGQGTKVEIKR

Continued, binder first:

Binder	binding
L5 soluble single domain antibody (antibody, V domains shown, Single human kappa light chain variable domain (domain antibody), expressed from pDOM5 in E. coli BL21, purified on protein L, about 15 kDa; the tie to L5 rests on the order of the list and the numbering (CDRs 4, 6, 8 follow 2); not shown: c-Myc tag (detected with anti-Myc-HRP)) VL: DIQMTQSPSSLSASVGDRVTITCRASQGIKMKLNWYQQKPGKAPKLLIYNTSHLQSGVPSRFSGSGSGTDFTLTISSLQPEDFATYYCQQHKTRPDTFGQGTKVEIKR	binds
L11 soluble single domain antibody (antibody, V domains shown, Tie to L11 rests on list order and numbering; not shown: c-Myc tag (detected with anti-Myc-HRP)) VL: DIQMTQSPSSLSASVGDRVTITCRASQWIFTELAWYQQKPGKAPKLLIYNASYLQSGVPSRFSGSGSGTDFTLTISSLQPEDFATYYCQQTFTPPITFGQGTKVEIKR	binds
L7 soluble single domain antibody (antibody, V domains shown, Single human kappa light chain variable domain, from pDOM5 in E. coli BL21, protein L purified; not shown: c-Myc tag (detected with anti-Myc-HRP)) VL: DIQMTQSPSSLSASVGDRVTITCRASQRIFTRLEWYQQKPGKAPMLLIYNVSHLQSGVPSRFSGSGSGTDFTLTISSLQPEDFATYYCQQTEIIPITFGQGTKVEIKQ	binds

Target: T1, endogenous Etk of NSR cells
Assay: co-immunoprecipitation from NSR cell lysate (protein L pull-down, anti-Etk blot; anti-Etk pull-down, anti-c-Myc blot)

binding	Binder
binds	K5 intrabody (L5 expressed from pcDNA3.1-L5 in NSR cells) (antibody, V domains shown, not shown: small tags and cut ends) VL: DIQMTQSPSSLSASVGDRVTITCRASQGIKMKLNWYQQKPGKAPKLLIYNTSHLQSGVPSRFSGSGSGTDFTLTISSLQPEDFATYYCQQHKTRPDTFGQGTKVEIKR
binds	K9 intrabody (L9 expressed from pcDNA3.1-L9 in NSR cells) (antibody, V domains shown, not shown: small tags and cut ends) VL: DIQMTQSPSSLSASVGDRVTITCRASQAIKNKLGWYQQKPGKAPKLLIYKASYLQSGVPSRFSGSGSGTDFTLTISSLQPEDFATYYCQQMKSRPNTFGQGTKVEIKR
binds	K7 intrabody (L7 expressed from pcDNA3.1-L7 in NSR cells) (antibody, V domains shown, not shown: small tags and cut ends) VL: DIQMTQSPSSLSASVGDRVTITCRASQRIFTRLEWYQQKPGKAPMLLIYNVSHLQSGVPSRFSGSGSGTDFTLTISSLQPEDFATYYCQQTEIIPITFGQGTKVEIKQ
binds	K11 intrabody (L11 expressed from pcDNA3.1-L11 in NSR cells) (antibody, V domains shown, not shown: small tags and cut ends) VL: DIQMTQSPSSLSASVGDRVTITCRASQWIFTELAWYQQKPGKAPKLLIYNASYLQSGVPSRFSGSGSGTDFTLTISSLQPEDFATYYCQQTFTPPITFGQGTKVEIKR
